The source of these data is publication PMC3792862, “Structure of UreG/UreF/UreH Complex Reveals How Urease Accessory Proteins Facilitate Maturation of Helicobacter pylori Urease” (PLoS Biology, 2013).

The chains behind the UniProt entries cited, without tags or fusion partners.
UniProt Q09065: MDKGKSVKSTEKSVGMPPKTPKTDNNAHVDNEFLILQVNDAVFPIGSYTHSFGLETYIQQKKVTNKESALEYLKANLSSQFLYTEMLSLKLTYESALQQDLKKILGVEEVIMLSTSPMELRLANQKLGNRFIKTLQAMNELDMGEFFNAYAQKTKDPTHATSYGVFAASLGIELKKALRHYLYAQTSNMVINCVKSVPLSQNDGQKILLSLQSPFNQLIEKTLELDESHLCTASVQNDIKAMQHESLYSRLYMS

These are yes or no findings as the source states them, for the method shown. For part of these data: In cells and extracts the contact can be indirect. Some binding calls cover weakened binding; strength is not graded here.

Assay [1] has as its target UreG(H68A) (Helicobacter pylori) (UniProt Q09066). The experiment in a line: SEC-MALS; SEC/SLS; 40 µM UreG or variant with 0.5 mM nickel and 1 mM GTP; Superdex 200, phosphate-buffered saline; both purified.
Assay [2] deals with UreG(C66A) (Helicobacter pylori) (UniProt Q09066). The description is as above.
Assay [3] has as its target HisGST-UreF (Helicobacter pylori) (UniProt Q09065). The experiment in a line: pull-down; GST pull-down; cells expressing UreG and cells expressing HisGST-UreF/UreH or the variant mixed and sonicated together; cleared lysate on GST SpinTrap, 30 min at 4°C; buffer C (20 mM Tris pH 7.5, 200 mM NaCl, 1 mM TCEP); eluted with 10 mM glutathione; SDS-PAGE.

For the molecule UreG(H68A) (from UniProt Q09066 1-199), in assay [1], the binding entry is “no binding (tested: 40 µM)”. On to UreG(C66A) (from UniProt Q09066 1-199), for which the binding entry in assay [2] was “no binding (tested: 40 µM)”.

B1: UreH (protein, UniProt Q09067 1-265)
chain: MNTYAQESKLRLKTKIGADGRCVIEDNFFTPPFKLMAPFYPKDDLAEIMLLAVSPGMMRGDAQDVQLNIGPNCKLRITSQSFEKIHNTEDGFASRDMHIVVGENAFLDFAPFPLIPFENAHFKGNTTISLRSSSQLLYSEIIVAGRVARNELFKFNRLHTKISILQDEKPIYYDNTILDPKTTDLNNMCMFDGYTHYLNLVLVNCPIELSGVRECIEESEGVDGAVSETASSHLCVKALAKGSEPLLHLREKIARLVTQTTTQKV
B1: the binding result in assay [3] is reported as “binds”.
